In PMC8850591:
Where a chain is given by its changes, count along the chain named. No constants are given. Whether binding was seen depends on the method and setting. In cells and extracts the contact can be indirect. Some binding calls cover weakened binding; strength is not graded here. For some assays here: Where a sequence is shown, tags or fusion partners need not be part of it.

Amino acid sequences for entries named in this document (tags omitted). Residues count along the entry.
UniProt Q07021, residues 74-282: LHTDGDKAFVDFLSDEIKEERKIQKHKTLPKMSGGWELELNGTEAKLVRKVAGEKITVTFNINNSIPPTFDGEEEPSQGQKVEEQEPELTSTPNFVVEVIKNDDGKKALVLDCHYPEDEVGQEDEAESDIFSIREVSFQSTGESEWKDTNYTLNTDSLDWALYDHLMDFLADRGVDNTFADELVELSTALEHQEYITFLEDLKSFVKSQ
UniProt P05198: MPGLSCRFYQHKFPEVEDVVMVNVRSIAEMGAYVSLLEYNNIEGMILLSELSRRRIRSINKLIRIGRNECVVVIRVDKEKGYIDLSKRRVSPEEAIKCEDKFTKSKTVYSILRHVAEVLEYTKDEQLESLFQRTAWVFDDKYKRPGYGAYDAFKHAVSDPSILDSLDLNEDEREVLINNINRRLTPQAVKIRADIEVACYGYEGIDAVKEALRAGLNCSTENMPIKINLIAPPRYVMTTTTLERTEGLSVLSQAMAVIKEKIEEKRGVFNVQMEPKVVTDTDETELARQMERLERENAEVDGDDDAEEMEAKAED

Columns and labels:
[1] = biological target: T1, exogenous wild-type CHCHD2 (human) (UniProt Q9Y6H1); test: co-IP; CHCHD2 KO HeLa cells expressing exogenous CHCHD2 WT, T61I or R145Q, with or without CCCP (8 h in the legend, 12 h in the text); immunoprecipitated with anti-CHCHD2 and protein G magnetic beads, immunoblot
T1 sequence: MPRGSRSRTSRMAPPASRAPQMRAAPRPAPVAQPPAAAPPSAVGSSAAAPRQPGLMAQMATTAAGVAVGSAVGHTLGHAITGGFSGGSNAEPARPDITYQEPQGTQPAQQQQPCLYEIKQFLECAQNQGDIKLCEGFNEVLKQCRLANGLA

[2] = biological target: T2, FLAG-tagged CHCHD10 WT (human) (UniProt Q8WYQ3); test: co-IP; CHCHD10 KO HeLa cells expressing FLAG-tagged CHCHD10 WT, S59L or G66V, with or without CCCP (8 h in the legend, 12 h in the text); immunoprecipitated with FLAG M2 resin, immunoblot
T2 sequence: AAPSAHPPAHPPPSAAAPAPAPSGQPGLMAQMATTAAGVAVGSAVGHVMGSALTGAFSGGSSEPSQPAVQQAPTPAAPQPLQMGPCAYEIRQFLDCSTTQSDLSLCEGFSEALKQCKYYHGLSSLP

[3] = biological target: T3, CHCHD2-T61I (PD-related mutant) (human) (UniProt Q9Y6H1); test: co-IP; CHCHD2 KO HeLa cells expressing exogenous CHCHD2 WT, T61I or R145Q, with or without CCCP (8 h in the legend, 12 h in the text); immunoprecipitated with anti-CHCHD2 and protein G magnetic beads, immunoblot
T3 sequence: T1 sequence with T61I

[4] = biological target: T4, CHCHD2-R145Q (PD-related mutant) (human) (UniProt Q9Y6H1); test: as above
T4 sequence: T1 sequence with R145Q

[5] = biological target: T5, FLAG-tagged CHCHD10-G66V (ALS-related mutant) (human) (UniProt Q8WYQ3); test: co-IP; CHCHD10 KO HeLa cells expressing FLAG-tagged CHCHD10 WT, S59L or G66V, with or without CCCP (8 h in the legend, 12 h in the text); immunoprecipitated with FLAG M2 resin, immunoblot
T5 sequence: T2 sequence with G50V

[6] = biological target: T6, FLAG-tagged CHCHD10-S59L (ALS-related mutant) (human) (UniProt Q8WYQ3); test: as above
T6 sequence: T2 sequence with S43L

binding [1]	binding [2]	binding [3]	binding [4]	binding [5]	binding [6]	Substance
binds	binds	–	–	–	–	P32, endogenous in HeLa cells (from UniProt Q07021 74-282)
binds	binds	binds	binds	binds	binds	eIF2α, endogenous in HeLa cells (from UniProt P05198 1-315)
